At least one structure is not confirmed: it was looked up by name or label, or the drawing left a doubt. Where a SMILES comes first, the peptide text is derived from it. Bridges are numbered along the chain shown (N, C = ends). Side-chain parts run from the residue outwards. [ ]: non-standard residue; d: D form. The star is where a group is joined. Palmitoyl(16-(5-tetrazolyl)) = O=C(CCCCCCCCCCCCCCCc1nnn[nH]1)*; C16 diacid = O=C(O)CCCCCCCCCCCCCCC(=O)*; Hyp = O=C(O)[C@@H]1C[C@@H](O)CN1; NTA = O=C(O)CN(CC(=O)O)CC(=O)*; Nle = CCCC[C@H](N)C(=O)O; Dap = NC[C@H](N)C(=O)O; AEEA = NCCOCCOCC(=O)O
System: ad libitum fed rat
Assay: Assay (I) efficacy testing on appetite, ad libitum fed rat model
Type: in vivo
Details: 1 mg/kg
Experimental: Assay (I)— Experimental Protocol for Efficacy Testing on Appetite with MC4 Analogues, Using an Ad Libitum Fed Rat Model.
TAC:SPRD @mol rats or Wistar rats from M&B Breeding and Research Centre A/S, Denmark are used for the experiments. The rats have a body weight 200-250 g at the start of experiment. The rats arrive at least 10-14 days before start of experiment with a body weight of 180-200 g. Each dose of compound is tested in a group of 8 rats. A vehicle group of 8 rats is included in each set of testing.
When the animals arrive they are housed individually in a reversed light/dark phase (lights off 7:30 am, lights on 7:30 pm), meaning that lights are off during daytime and on during nighttime. Since rats normally initiate food intake when light is removed, and eat the major part of their daily food intake during the night, this set up results in an alteration of the initiation time for food intake to 7:30 am, when lights are switched off. During the acclimatization period of 10-14 days, the rats have free access to food and water. During this period the animals are handled at least 3 times. The experiment is conducted in the rats' home cages. Immediately before dosing the rats are randomised to the various treatment groups (n 8) by body weight. They are dosed according to body weight at between 7:00 am and 7:45 am, with a 1-3 mg/kg solution administered intraperitoneally (ip), orally (po) or subcutaneously (sc). The time of dosing is recorded for each group. After dosing, the rats are returned to their home cages, where they then have access to food and water. The food consumption is recorded individually every hour for 7 hours, and then after 24 h and sometimes 48 h. At the end of the experimental session, the animals are euthanised.
The individual data are recorded in Microsoft excel sheets. Outliers are excluded after applying the Grubbs statistical evaluation test for outliers, and the result is presented graphically using the GraphPad Prism program.

SMILES	Food consumption (% of vehicle) 24 h	Food consumption (% of vehicle) 48 h (48 h)
CCCC[C@H](NC(=O)[C@H](CNC(=O)[C@H](Cc1c[nH]cn1)NC(=O)[C@H](CCC(N)=O)NC(=O)[C@H](CO)NC(=O)CNC(=O)COCCOCCNC(=O)CCCCCCCCCCCCCCCc1nnn[nH]1)NC(=O)CN(CC(=O)O)CC(=O)O)C(=O)N[C@H]1CCC(=O)NCCCC[C@@H](C(N)=O)NC(=O)[C@H](Cc2c[nH]c3ccccc23)NC(=O)[C@H](CCCNC(=N)N)NC(=O)[C@@H](Cc2ccccc2)NC(=O)[C@@H]2C[C@@H](O)CN2C1=O [Example 2, (2-{2-[16-(Tetrazol-5-yl)hexadecanoylamino]ethoxy}ethoxy)acetyl-Gly-Ser-Gln-His-β-Dap(BCMA)-Nle-c[Glu-Hyp-D-Phe-Arg-Trp-Lys]-NH2] ({NTA}-[Dap]([His-Gln-Ser-Gly-AEEA-Palmitoyl(16-(5-tetrazolyl))])[Nle]E[Hyp][dF]RWK-NH2; lactam 3-8)	60 % of vehicle	
CCCC[C@H](NC(=O)[C@H](CNC(=O)CN(CC(=O)O)CC(=O)O)NC(=O)[C@H](Cc1c[nH]cn1)NC(=O)[C@H](CCC(N)=O)NC(=O)[C@H](CO)NC(=O)CNC(=O)COCCOCCNC(=O)CCCCCCCCCCCCCCC(=O)O)C(=O)N[C@H]1CCC(=O)NCCCC[C@@H](C(N)=O)NC(=O)[C@H](Cc2c[nH]c3ccccc23)NC(=O)[C@H](CCCNC(=N)N)NC(=O)[C@@H](Cc2ccccc2)NC(=O)[C@@H]2C[C@@H](O)CN2C1=O [Example 13, {2-[2-(15-Carboxypentadecanoylamino)ethoxy]ethoxy}acetyl-Gly-Ser-Gln-His-Dap(BCMA)-Nle-c[Glu-Hyp-D-Phe-Arg-Trp-Lys]-NH2] ({C16 diacid-AEEA}-GSQH[Dap](NTA)[Nle]E[Hyp][dF]RWK-NH2; lactam 7-12)	59 % of vehicle	80 % of vehicle
